Our source for the binding values is doi:10.1101/2021.06.22.449413.

Numbering of substitutions follows the chain as printed. In names and notes the source's numbering stands. Results are given in words; binding and its absence hold for the method and conditions named. For part of these data: Binding seen in cells or lysates may run through a third protein. Some results given as binding are weak or reduced against the parent protein; the word gives no strength. For part of these data: Sequences can lack the tags named with a protein.

The target in experiment [1] is T1, Mia40, endogenous in isolated yeast mitochondria (S. cerevisiae (endogenous in yeast mitochondria)) (UniProt P36046).
T1 sequence: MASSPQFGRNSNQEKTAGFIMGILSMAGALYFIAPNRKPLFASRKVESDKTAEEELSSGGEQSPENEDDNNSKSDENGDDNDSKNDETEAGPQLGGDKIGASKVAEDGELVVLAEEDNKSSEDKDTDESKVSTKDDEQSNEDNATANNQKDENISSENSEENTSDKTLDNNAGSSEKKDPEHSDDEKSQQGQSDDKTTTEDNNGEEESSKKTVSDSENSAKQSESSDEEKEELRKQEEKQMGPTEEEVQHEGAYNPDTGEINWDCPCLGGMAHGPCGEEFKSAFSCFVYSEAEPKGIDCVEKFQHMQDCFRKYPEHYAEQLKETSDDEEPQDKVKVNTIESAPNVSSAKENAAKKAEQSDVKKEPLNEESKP
Put plainly: native gel or EMSA.

In experiment [2] the target is T2, Tim10, endogenous in isolated yeast mitochondria (S. cerevisiae (endogenous in yeast mitochondria)) (UniProt P87108).
T2 sequence: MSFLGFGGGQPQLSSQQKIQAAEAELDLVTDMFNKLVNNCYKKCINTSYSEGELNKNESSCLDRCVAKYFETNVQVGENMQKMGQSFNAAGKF
Description: native gel or EMSA.

Experiment [3] deals with T3, Thioredoxin 1 (Trx1), His-tagged, wild type (S. cerevisiae) (UniProt P22217).
T3 sequence: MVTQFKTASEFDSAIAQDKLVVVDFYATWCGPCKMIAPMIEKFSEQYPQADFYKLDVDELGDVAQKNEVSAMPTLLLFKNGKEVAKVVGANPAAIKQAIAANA
Description: pull-down.

The target of experiment [4] is T4, Trx1 C33S single mutant (thiol-trapping mutant), His-tagged (S. cerevisiae) (UniProt P22217).
T4 sequence: T3 sequence with C33S
Put plainly: pull-down.

Experiment [5] has as its target T1, Mia40, endogenous in isolated yeast mitochondria (S. cerevisiae (endogenous in yeast mitochondria)). Put plainly: non-reducing SDS-PAGE of a mixed disulfide intermediate.

B1: Tim9, 35S-labelled precursor (protein, UniProt O74700 1-87)
chain: MDALNSKEQQEFQKVVEQKQMKDFMRLYSNLVERCFTDCVNDFTTSKLTNKEQTCIMKCSEKFLKHSERVGQRFQEQNAALGQGLGR
modifications: 35S-labelled
B1: the binding result in experiment [1] and in experiment [2] was “binds” each time.

B2: Mia40, endogenous in isolated yeast mitochondria (protein, UniProt P36046 32-403)
chain: T1 sequence
For B2, the binding entry in experiment [3] and in experiment [4] was “binds” each time.

B3: Erv1, endogenous in isolated yeast mitochondria (protein, UniProt P27882 1-189)
chain: MKAIDKMTDNPPQEGLSGRKIIYDEDGKPCRSCNTLLDFQYVTGKISNGLKNLSSNGKLAGTGALTGEASELMPGSRTYRKVDPPDVEQLGRSSWTLLHSVAASYPAQPTDQQKGEMKQFLNIFSHIYPCNWCAKDFEKYIRENAPQVESREELGRWMCEAHNKVNKKLRKPKFDCNFWEKRWKDGWDE
For B3, in experiment [3], the binding result is reported as “binds weakly”.

B4: Tim10(C65S), 35S-labelled (protein, UniProt P87108 1-93)
chain: T2 sequence with C65S
modifications: 35S-labelled
B4: in experiment [5], the binding result was “binds”.
